# Some of the results follow. Further columns of the screen follow, without active or inactive calls. Compounds called inactive in the main read-out are mostly missing here. Words in brackets tell the shape of the fitted curve; partial curves, single points and poor fits give uncertain potencies.
# Experiment: qHTS Assay for Modulators of Lamin A Splicing
# Settings: HeLa LMNA splicing GFP/RFP minigene ratio, 48 h
# Summary of the method: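 S3 HeLa stable clones carrying a lamin A-EGFP splicing minigene plus DsRed2 were seeded at 600 cells/well in Opti-MEM with 2% FBS, pin-dosed and incubated 48 h at 37°C. Acumen cytometry (488 nm) gave the GFP/RFP total-intensity ratio.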
# [1] = measured here: GFP splicing reporter channel
# [2] = measured here: RFP viability control channel
SMILES,AC50 [1],AC50 [2]
O=C(NC(=S)Nc1ccc(N2CCCCC2)c(Cl)c1)c1ccc2c(c1)OCCO2,"12.6 µM [falling, partial curve]","11.2 µM [falling, partial curve]"
O=C(Cn1cc(SCc2ccc(F)cc2)c2ccccc21)N1CCOCC1,,"25.1 µM [rising, single point]"
Cc1cccc(Nc2nc(-c3c(C)nc4ccccn34)cs2)c1,"35.5 µM [falling, single point]","22.4 µM [falling, partial curve]"
Cc1c(Br)c([N+](=O)[O-])nn1CC(=O)Nc1ccc(C(C)C)cc1,,"0.00891 µM [falling, full curve, poor fit]"
CC1(C)Oc2ccc(C#N)cc2[C@@H](N2CCCC2=O)[C@@H]1O,,"0.0355 µM [falling, full curve, poor fit]"
Cc1nc2cc(NC(=O)N3CCCC3)ccc2n1C,"11.2 µM [rising, partial curve, poor fit]",
CN(C)c1nnnn1Cc1ccccc1,,"25.1 µM [falling, partial curve]"
O=C(NCCc1c[nH]c2ccccc12)C(=O)NCC1OCCN1S(=O)(=O)c1ccc(Cl)cc1 (stereo not given),,"14.1 µM [rising, partial curve]"
CCOC(=O)c1[nH]c2c(c1C)C(=O)CC(c1ccc(F)cc1)C2 (stereo not given),,"8.91 µM [rising, partial curve]"
CC(C)(C)c1ccc(C(=O)Nc2ccc([N+](=O)[O-])cn2)cc1,"6.31 µM [rising, full curve, poor fit]","14.1 µM [rising, partial curve, poor fit]"
CCCNC(=O)OC[C@H]1O[C@H](CCO/N=C(\C)CCN2CCc3nc(-c4ccccc4)c(-c4ccccc4)cc3C2)C=C[C@@H]1Oc1ccc(OC)cc1,"3.55 µM [rising, full curve]","14.1 µM [rising, partial curve]"
Cn1cc([N+](=O)[O-])c(C(=O)Nc2nccs2)n1,"22.4 µM [falling, single point]","2.82 µM [falling, full curve, poor fit]"
CC(C)(C)OC(=O)N1CCC[C@H]1c1nnc(SCc2c(Cl)cccc2Cl)o1,"22.4 µM [rising, partial curve, poor fit]","11.2 µM [rising, partial curve, poor fit]"
CCOC(=O)c1ccc(NC(=O)CN2C(=O)CC(c3ccc(C)c(C)c3)=Nc3ccccc32)cc1,"0.0251 µM [falling, full curve]","4.47 µM [falling, full curve, poor fit]"
Cc1ccc(-c2noc(CSc3nnnn3-c3ccccc3)n2)cc1,"17.8 µM [rising, single point]","17.8 µM [rising, single point]"
O=S(=O)(CC(CN1CCCC1)N1CCCC1)c1ccc2ccccc2c1 (stereo not given),"22.4 µM [falling, partial curve, poor fit]","2.82 µM [rising, single point]"
CCCCC(=O)Nc1cccc(-c2cn3ccccc3n2)c1,,"12.6 µM [rising, partial curve]"
Cn1c(-n2cccc2)c(-c2c(-c3ccc(F)cc3)[nH]c3c2c(=O)[nH]c(=O)n3C)c(=O)[nH]c1=O,"0.01 µM [falling, full curve, poor fit]",
CC1CCCN(C(=O)Cn2c(=O)n(CC3CCC(C(=O)NC(C)C)CC3)c(=O)c3sccc32)C1 (stereo not given),"2.82 µM [rising, partial curve, poor fit]","0.0251 µM [rising, full curve, poor fit]"
CN1C(=O)c2ccccc2Sc2ccc(NC(=O)COc3ccc(Cl)cc3)cc21,,"12.6 µM [rising, single point]"
Cc1ccc(S(=O)(=O)Nc2cccc(-c3cn4ccsc4n3)c2)cc1,"22.4 µM [rising, single point]","12.6 µM [rising, partial curve]"
CSc1ccc(-c2nnn(Cc3ccc(C)cc3)n2)cc1,,"31.6 µM [rising, single point]"
CCn1c(NC(=O)Nc2ccccc2OC)nc2ccccc21,,"10 µM [rising, partial curve, poor fit]"
COc1ccc(-n2c(Cc3cccn3C)nnc2SCC(=O)Nc2cc(Cl)ccc2OC)cc1,"35.5 µM [rising, single point]","35.5 µM [rising, single point]"
Cc1ccccc1CS(=O)(=O)c1nnc([C@H](Cc2ccccc2)NC(=O)OC(C)(C)C)o1,"35.5 µM [falling, single point]","11.2 µM [falling, single point]"
Cc1cc(F)ccc1S(=O)(=O)Nc1ccccc1C(=O)NCc1cccnc1,"0.00316 µM [falling, full curve, poor fit]",
N[C@@H](CCC(=O)N[C@H](CSN=O)C(=O)NCC(=O)O)C(=O)O,,"5.62 µM [falling, partial curve, poor fit]"

# No new results follow: entries from further up.
SMILES,AC50 [1],AC50 [2]
CCOC(=O)c1[nH]c2c(c1C)C(=O)CC(c1ccc(F)cc1)C2 (stereo not given),,"8.91 µM [rising, partial curve]"
CC(C)(C)c1ccc(C(=O)Nc2ccc([N+](=O)[O-])cn2)cc1,"6.31 µM [rising, full curve, poor fit]","14.1 µM [rising, partial curve, poor fit]"

# More compounds follow.

SMILES,AC50 [1],AC50 [2]
CCOC(=O)Cc1[nH]nc2c1C(c1ccsc1)C(C#N)=C(N)O2 (stereo not given),,"12.6 µM [falling, partial curve, poor fit]"
CCOC(=O)c1[nH]c(C)c(C(=O)N2CCc3ccccc32)c1C,"1.12 µM [falling, full curve]","1.26 µM [falling, full curve]"
c1csc(-c2nnsc2-c2nc3ccccc3[nH]2)c1,"12.6 µM [rising, single point]",
Cc1[nH]n(-c2nc(-c3cccc([N+](=O)[O-])c3)cs2)c(=O)c1C,"0.0398 µM [falling, full curve, poor fit]",
COc1ccc(CNc2ccnc(-c3ccc(C(=O)N(C)C)cc3)n2)c(OC)c1,"25.1 µM [falling, partial curve, poor fit]",
O=C(c1cc(-c2cccs2)on1)N1CCc2ccccc2C1,,"35.5 µM [rising, single point]"
Clc1ccc2[nH]c3c(c2c1)CCc1cn[nH]c1-3,,"5.62 µM [rising, single point]"
Cc1cc(NC(=O)CSc2nnnn2-c2ccc(C)c(C)c2)no1,,"10 µM [falling, partial curve]"
CC(C)(C)OC(=O)N1CCC(c2c(C(=O)N3CCN(c4ncccn4)CC3)cnn2-c2ccc(F)cc2F)CC1,,"0.00316 µM [falling, full curve, poor fit]"
Clc1ccc(-c2nnc(CSc3nnc(-c4cccs4)n3Cc3ccccc3)o2)cc1,,"3.16 µM [rising, full curve]"
CCOc1ccc(NC(=O)CCN2CCCCC2)cc1,,"1.26 µM [falling, single point]"
COc1cc(NC(=S)NC2CC(C)(C)NC(C)(C)C2)c(OC)cc1Cl,,"35.5 µM [rising, single point]"
O=C(CN1CCCCC1)Nc1scc2c1c(=O)oc1ccccc12,"0.01 µM [rising, full curve, poor fit]",
Cc1ccc(NC(=O)C2CC(=O)N/C(=N/NC(=O)c3ccc(C)cc3)S2)cc1 (stereo not given),,"22.4 µM [rising, single point]"
C[N+](C)(C)CCCCCC[N+](C)(C)C,"0.00562 µM [falling, full curve, poor fit]","0.00355 µM [falling, full curve, poor fit]"
Cc1cc2oc(C(=O)Nc3c(C)n(C)n(-c4ccccc4)c3=O)c(C)c2cc1Cl,"14.1 µM [rising, partial curve, poor fit]","14.1 µM [rising, single point]"
O=C(O)C1Cc2ccccc2CN1S(=O)(=O)/C=C/c1ccccc1 (stereo not given),,"11.2 µM [rising, single point]"
O=C(COC(=O)c1cccc(NS(=O)(=O)c2ccc(F)c(F)c2)c1)NC(=O)NC1CCCCC1,,"7.94 µM [rising, partial curve, poor fit]"
CC(C)CC(=O)NC(=S)N(Cc1ccccc1)Cc1ccccc1,"14.1 µM [rising, single point]",
Cc1ccc(C(=O)Nc2nc(-c3ccccc3)c(-c3ccccc3)o2)cc1,"35.5 µM [rising, single point]","35.5 µM [rising, partial curve]"
COc1ccc(C)cc1NC(=S)N1CCN(c2ccccn2)CC1,,"22.4 µM [rising, single point]"
S=c1nc(-c2sccc2OCc2ccc(Cl)cc2Cl)[nH][nH]1,"15.8 µM [falling, single point]","20 µM [falling, partial curve, poor fit]"
CC[N+](C)(C)Cc1ccccc1Br,"0.282 µM [falling, full curve, poor fit]","0.0708 µM [falling, full curve, poor fit]"
CCn1c(SCC(=O)Nc2ccc(N(C)C)cc2)nnc1-c1cccc(C)c1,"17.8 µM [rising, single point]","17.8 µM [rising, single point]"
Cc1ccc(C2C3=C(CCCC3=O)N=C3c4ccccc4C(=O)C32)cc1 (stereo not given),"3.55 µM [rising, partial curve]","8.91 µM [rising, partial curve]"
c1ccc(-c2c3ccccc3nc3[nH]c4ccccc4c23)cc1,,"10 µM [rising, partial curve]"
COc1ccccc1CNc1cc(-c2c(C)noc2C)ncn1,"20 µM [falling, partial curve]",
